Measurements from paper PMC7940652.
Results are given in words; binding and its absence hold for the method and conditions named. Binding seen in cells or lysates may run through a third protein. Some entries that bind do so weakly or less than the wild type.

By UniProt entry, the sequences of proteins in these tests, tags left out. Residues count along the entry.
UniProt O00206, residues 24-839: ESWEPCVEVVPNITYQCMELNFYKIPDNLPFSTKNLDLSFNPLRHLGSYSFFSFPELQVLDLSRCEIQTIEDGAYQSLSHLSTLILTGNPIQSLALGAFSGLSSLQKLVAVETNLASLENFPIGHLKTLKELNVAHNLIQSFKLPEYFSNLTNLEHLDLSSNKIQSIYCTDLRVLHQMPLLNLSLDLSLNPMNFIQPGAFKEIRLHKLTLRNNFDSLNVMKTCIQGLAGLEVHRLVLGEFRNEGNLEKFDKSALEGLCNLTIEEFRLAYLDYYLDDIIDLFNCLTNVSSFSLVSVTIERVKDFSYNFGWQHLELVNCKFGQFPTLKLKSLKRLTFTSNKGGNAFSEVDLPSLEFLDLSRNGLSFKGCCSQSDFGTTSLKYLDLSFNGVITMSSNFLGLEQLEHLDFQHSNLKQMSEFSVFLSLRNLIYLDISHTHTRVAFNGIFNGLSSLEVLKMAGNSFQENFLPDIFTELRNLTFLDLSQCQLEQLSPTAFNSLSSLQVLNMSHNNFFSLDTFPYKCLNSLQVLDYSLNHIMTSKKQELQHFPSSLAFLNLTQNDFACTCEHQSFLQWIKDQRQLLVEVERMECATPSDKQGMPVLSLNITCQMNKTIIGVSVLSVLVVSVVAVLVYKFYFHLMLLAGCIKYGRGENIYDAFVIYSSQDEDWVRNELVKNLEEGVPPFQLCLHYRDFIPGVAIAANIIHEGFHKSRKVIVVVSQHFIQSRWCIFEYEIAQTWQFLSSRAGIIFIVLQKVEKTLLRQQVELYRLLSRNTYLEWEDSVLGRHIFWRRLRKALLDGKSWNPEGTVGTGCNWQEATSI
UniProt P58753: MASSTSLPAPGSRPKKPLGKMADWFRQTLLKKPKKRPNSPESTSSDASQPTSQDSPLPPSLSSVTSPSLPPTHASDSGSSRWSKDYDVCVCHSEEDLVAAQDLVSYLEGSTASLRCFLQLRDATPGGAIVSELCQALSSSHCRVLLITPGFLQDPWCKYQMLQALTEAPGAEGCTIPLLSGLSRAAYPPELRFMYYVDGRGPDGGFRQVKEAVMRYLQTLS
UniProt Q99836: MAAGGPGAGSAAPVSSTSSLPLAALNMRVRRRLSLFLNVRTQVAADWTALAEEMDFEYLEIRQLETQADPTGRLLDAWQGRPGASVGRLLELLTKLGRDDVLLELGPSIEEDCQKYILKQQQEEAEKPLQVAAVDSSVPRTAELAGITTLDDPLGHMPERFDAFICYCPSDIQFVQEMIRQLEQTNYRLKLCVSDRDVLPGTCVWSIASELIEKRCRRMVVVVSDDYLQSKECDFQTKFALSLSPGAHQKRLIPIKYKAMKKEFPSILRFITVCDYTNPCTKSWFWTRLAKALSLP
UniProt Q9HD89, residues 19-108: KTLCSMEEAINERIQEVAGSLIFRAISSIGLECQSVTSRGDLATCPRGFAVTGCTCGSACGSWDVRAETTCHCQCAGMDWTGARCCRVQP

Experiments:
[1] = target: Toll-like receptor 4 (human (endogenous in SH-SY5Y)) (UniProt O00206); test: co-IP; SH-SY5Y lysates incubated with anti-TLR4 overnight at 4 °C, protein A-agarose 2 h at 4 °C; blotted for TLR4, MyD88 or TIRAP; cells pre-treated with palmitic acid, DHA or placebo and challenged with resistin
[2] = target: Toll-like receptor 4 (human (endogenous in SH-SY5Y)) (UniProt O00206); test: cross-linking + co-IP; serum starved SH-SY5Y cells treated with resistin (200 ng/mL) for 1 h at 4 °C, BS3 2.5 mM for 1 h at 4 °C, quenched with 20 mM Tris-HCl pH 7.5; lysates immunoprecipitated with anti-TLR4, blotted for TLR4 or resistin (legend: resistin 100 ng/ml for 16 h, with or without BS3); only the binder …

| binding [1] | binding [2] | Substance |
| --- | --- | --- |
| binds | – | TIRAP (from UniProt P58753 1-221) |
| binds | – | MyD88 (from UniProt Q99836 1-296) |
| – | binds | Human resistin (from UniProt Q9HD89 19-108) (ligand) |
